Measured values taken from the supplement of paper PMC10849652.
Some of the results follow.

Amino acid sequences for entries named in this document (tags omitted). A change or cut given only in a name is not applied to a line headed by its entry.
UniProt Q9H019: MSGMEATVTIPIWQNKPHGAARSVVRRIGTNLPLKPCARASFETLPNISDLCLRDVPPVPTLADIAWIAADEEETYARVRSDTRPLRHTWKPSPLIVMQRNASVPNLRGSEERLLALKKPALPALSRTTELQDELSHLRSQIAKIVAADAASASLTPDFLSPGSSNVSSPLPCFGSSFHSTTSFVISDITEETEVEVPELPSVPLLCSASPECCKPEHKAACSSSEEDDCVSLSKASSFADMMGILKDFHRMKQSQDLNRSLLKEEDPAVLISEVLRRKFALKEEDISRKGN
UniProt Q6P1R3: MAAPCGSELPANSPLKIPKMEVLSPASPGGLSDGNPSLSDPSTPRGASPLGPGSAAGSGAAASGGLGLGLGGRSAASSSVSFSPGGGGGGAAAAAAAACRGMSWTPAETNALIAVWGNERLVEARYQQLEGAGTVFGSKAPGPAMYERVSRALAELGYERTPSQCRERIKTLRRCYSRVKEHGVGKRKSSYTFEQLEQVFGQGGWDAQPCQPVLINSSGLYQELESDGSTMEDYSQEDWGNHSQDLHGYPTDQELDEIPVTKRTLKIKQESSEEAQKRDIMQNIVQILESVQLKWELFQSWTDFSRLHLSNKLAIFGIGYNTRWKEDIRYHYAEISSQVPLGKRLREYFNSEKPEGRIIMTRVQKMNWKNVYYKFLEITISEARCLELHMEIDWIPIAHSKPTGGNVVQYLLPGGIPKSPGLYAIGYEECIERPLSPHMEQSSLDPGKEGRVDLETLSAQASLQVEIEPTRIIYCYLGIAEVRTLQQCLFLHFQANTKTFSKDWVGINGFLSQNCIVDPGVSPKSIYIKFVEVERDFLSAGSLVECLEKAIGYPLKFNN
UniProt O14950, whole entry, looked up: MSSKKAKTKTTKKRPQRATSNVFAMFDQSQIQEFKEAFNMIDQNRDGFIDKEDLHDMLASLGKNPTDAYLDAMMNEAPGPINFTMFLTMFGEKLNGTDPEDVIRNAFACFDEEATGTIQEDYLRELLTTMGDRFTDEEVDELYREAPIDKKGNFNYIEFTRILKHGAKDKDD
UniProt P35749, whole entry, looked up: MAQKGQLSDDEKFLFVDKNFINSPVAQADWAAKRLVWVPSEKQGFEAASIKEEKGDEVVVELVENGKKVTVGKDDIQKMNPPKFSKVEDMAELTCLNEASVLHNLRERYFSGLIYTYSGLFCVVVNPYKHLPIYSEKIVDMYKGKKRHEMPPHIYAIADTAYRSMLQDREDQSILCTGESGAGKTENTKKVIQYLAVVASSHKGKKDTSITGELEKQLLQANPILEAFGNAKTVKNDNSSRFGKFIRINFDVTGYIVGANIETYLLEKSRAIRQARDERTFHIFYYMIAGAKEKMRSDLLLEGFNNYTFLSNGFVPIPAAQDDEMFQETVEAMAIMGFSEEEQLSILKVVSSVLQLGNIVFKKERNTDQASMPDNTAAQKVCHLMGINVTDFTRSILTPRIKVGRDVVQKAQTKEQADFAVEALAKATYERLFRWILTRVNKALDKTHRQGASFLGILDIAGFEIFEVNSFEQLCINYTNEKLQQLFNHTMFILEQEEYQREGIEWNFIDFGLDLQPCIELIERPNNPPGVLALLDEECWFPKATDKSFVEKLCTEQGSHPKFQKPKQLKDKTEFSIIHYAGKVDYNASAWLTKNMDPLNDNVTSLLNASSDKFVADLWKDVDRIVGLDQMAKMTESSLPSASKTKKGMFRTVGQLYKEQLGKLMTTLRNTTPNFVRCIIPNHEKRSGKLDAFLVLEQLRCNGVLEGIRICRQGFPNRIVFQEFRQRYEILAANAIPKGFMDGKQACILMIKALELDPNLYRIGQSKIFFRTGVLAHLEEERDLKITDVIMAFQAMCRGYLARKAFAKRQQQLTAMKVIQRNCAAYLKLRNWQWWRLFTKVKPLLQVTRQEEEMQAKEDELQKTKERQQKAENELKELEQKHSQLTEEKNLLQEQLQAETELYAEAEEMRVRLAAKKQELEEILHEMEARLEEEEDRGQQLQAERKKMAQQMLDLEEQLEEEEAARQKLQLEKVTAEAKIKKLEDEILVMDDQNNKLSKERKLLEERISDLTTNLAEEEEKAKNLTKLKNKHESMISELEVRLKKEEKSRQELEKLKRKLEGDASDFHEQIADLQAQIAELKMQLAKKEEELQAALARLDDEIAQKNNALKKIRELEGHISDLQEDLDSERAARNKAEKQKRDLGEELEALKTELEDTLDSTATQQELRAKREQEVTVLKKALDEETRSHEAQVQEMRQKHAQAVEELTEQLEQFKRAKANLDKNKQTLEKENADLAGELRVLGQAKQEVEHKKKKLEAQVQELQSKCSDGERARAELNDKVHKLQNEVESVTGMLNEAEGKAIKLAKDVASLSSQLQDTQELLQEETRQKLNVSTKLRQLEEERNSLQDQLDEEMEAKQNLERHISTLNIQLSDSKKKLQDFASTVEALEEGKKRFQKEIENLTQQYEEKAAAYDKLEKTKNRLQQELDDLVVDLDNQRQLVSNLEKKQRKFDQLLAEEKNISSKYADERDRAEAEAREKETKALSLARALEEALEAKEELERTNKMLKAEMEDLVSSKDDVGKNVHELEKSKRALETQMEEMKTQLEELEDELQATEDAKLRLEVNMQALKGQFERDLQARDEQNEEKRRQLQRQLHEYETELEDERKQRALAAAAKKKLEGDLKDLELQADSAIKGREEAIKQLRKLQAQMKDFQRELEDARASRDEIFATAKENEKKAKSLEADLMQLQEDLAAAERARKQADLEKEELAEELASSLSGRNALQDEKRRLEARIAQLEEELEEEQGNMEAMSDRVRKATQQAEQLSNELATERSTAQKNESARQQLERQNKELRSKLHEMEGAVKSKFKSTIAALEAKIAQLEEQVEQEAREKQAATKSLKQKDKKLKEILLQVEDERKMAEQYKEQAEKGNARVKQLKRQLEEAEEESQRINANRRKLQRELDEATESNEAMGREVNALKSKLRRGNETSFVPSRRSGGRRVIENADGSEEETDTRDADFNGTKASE
UniProt Q96E29: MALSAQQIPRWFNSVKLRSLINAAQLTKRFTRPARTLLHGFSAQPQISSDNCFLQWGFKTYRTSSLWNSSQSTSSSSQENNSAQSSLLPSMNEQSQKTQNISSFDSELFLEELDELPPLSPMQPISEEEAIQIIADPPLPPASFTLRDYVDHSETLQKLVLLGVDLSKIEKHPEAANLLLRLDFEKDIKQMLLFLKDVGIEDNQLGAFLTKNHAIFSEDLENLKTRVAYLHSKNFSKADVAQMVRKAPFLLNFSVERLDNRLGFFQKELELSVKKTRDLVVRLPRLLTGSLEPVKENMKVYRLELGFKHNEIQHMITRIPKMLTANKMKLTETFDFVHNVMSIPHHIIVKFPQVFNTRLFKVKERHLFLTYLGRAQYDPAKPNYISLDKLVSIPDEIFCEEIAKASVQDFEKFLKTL
UniProt P52701: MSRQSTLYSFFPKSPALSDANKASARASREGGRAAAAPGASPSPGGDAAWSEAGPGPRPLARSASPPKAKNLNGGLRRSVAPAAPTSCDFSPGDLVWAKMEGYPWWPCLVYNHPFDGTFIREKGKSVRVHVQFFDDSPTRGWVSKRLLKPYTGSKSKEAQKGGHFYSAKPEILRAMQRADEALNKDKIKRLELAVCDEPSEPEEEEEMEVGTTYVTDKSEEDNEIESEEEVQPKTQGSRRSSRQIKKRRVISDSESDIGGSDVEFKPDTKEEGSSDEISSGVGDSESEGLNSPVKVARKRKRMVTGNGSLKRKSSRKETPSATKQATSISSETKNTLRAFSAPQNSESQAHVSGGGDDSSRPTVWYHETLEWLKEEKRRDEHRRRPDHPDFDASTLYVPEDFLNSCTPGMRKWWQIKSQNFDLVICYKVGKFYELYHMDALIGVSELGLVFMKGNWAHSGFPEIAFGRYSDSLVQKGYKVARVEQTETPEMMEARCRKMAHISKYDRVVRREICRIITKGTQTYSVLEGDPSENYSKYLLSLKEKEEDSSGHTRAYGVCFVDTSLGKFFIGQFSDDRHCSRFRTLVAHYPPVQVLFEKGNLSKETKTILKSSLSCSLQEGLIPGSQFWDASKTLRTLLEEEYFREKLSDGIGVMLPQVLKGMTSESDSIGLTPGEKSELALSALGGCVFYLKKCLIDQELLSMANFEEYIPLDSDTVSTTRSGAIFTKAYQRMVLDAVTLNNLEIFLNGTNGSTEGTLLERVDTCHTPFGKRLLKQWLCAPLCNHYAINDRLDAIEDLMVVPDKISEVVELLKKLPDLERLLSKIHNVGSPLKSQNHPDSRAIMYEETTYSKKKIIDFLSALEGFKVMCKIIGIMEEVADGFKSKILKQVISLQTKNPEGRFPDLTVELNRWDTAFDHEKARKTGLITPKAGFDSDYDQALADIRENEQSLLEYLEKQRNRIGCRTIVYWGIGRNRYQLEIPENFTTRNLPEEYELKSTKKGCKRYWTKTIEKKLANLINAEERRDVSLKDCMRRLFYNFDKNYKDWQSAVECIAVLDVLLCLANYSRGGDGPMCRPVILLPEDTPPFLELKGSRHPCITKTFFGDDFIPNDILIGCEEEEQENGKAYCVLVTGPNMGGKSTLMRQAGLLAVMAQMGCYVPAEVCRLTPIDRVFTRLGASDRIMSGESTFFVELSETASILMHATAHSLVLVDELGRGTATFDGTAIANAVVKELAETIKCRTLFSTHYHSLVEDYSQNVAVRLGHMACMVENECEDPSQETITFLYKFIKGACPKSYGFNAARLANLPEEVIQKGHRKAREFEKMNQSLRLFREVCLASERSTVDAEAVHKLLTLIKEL

How the values were obtained:
Experiment in all cases: log2 fold change, soluble protein after heating vs DMSO (PISA); higher = thermal stabilisation; K562 cells, 10 uM, 30 min; active = over 0.2 and 3.5 SD of the protein, either way, in both replicates (recomputed)
saracatinib = compound: CN1CCN(CCOc2cc(OC3CCOCC3)c3c(Nc4c(Cl)ccc5c4OCO5)ncnc3c2)CC1 [saracatinib]
Summary of the method: (§1)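 K562 cells at 2×10^6 cells/mL were treated with 10 μM compound for 30 min. Aliquots were heated for 3 min across 48°C-58°C, pooled, and extracted in PBS with 0.5% NP-40 at 4°C; soluble protein was the supernatant after 21,000xg for 90 min. Soluble protein was quantified by TMTpro 16plex LC-MS/MS with channel sums equalised, and reported as log2 fold change in thermal stability against DMSO controls, with values from duplicates.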

sotrastaurin = compound: CN1CCN(c2nc(C3=C(c4c[nH]c5ccccc45)C(=O)NC3=O)c3ccccc3n2)CC1 [sotrastaurin]
Summary of the method: as §1

Tubastatin A = compound: CN1CCc2c(c3ccccc3n2Cc2ccc(C(=O)NO)cc2)C1 [Tubastatin A]
Summary of the method: as §1

[1] = compound: CNC(=O)C1=CC=CC=C1NC2=NC(=NC=C2Cl)NC3=C(C=C(C=C3)N4CCOCC4)OC
Summary of the method: as §1

defactinib = compound: CNC(=O)c1ccc(Nc2ncc(C(F)(F)F)c(NCc3nccnc3N(C)S(C)(=O)=O)n2)cc1 [defactinib]
Summary of the method: as §1

[2] = compound: CNc1nc(-c2ccc3c(N)n[nH]c3c2)cc(N2C[C@@H](C(=O)NC3CCCCC3)CC[C@H]2C)n1
Summary of the method: as §1

[3] = compound: COC(=O)[C@H](CCSC)NC(=O)C1=C(C=C(C=C1)NC[C@H](CS)N)C2=CC=CC=C2
Summary of the method: as §1

[4] = compound: COC1=CC=C(C=C1)CN2C=CC3=C2C=C(C=C3)C(=O)NO
Summary of the method: as §1

filanesib = compound: CON(C)C(=O)N1N=C(c2cc(F)ccc2F)S[C@@]1(CCCN)c1ccccc1 [filanesib]
Summary of the method: as §1

zotarolimus = compound: CO[C@H]1C[C@@H]2CC[C@@H](C)[C@@](O)(O2)C(=O)C(=O)N2CCCC[C@H]2C(=O)O[C@H]([C@H](C)C[C@@H]2CC[C@H](n3cnnn3)[C@H](OC)C2)CC(=O)[C@H](C)/C=C(\C)[C@@H](O)[C@@H](OC)C(=O)[C@H](C)C[C@H](C)/C=C/C=C/C=C/1C [zotarolimus]
Summary of the method: as §1

idasanutlin = compound: COc1cc(C(=O)O)ccc1NC(=O)[C@@H]1N[C@@H](CC(C)(C)C)[C@](C#N)(c2ccc(Cl)cc2F)[C@H]1c1cccc(Cl)c1F [idasanutlin]
Summary of the method: as §1

[5] = compound: COc1cc2nc(-c3cc(F)ccc3O)nc(N[C@@H]3CNC[C@H]3C(C)(C)O)c2cc1OC
Summary of the method: as §1

gefitinib = compound: COc1cc2ncnc(Nc3ccc(F)c(Cl)c3)c2cc1OCCCN1CCOCC1 [gefitinib]
Summary of the method: as §1

lapatinib = compound: CS(=O)(=O)CCNCc1ccc(-c2ccc3ncnc(Nc4ccc(OCc5cccc(F)c5)c(Cl)c4)c3c2)o1 [lapatinib]
Summary of the method: as §1

pictilisib = compound: CS(=O)(=O)N1CCN(Cc2cc3nc(-c4cccc5[nH]ncc45)nc(N4CCOCC4)c3s2)CC1 [pictilisib]
Summary of the method: as §1

rucaparib = compound: CNCc1ccc(-c2[nH]c3cc(F)cc4c3c2CCNC4=O)cc1 [rucaparib]
Summary of the method: as §1

encorafenib = compound: COC(=O)N[C@@H](C)CNc1nccc(-c2cn(C(C)C)nc2-c2cc(Cl)cc(NS(C)(=O)=O)c2F)n1 [encorafenib]
Summary of the method: as §1

alisertib = compound: COc1cc(Nc2ncc3c(n2)-c2ccc(Cl)cc2C(c2c(F)cccc2OC)=NC3)ccc1C(=O)O [alisertib]
Summary of the method: as §1

[6] = compound: COc1cccc2cc(-c3nc([C@H]4CC[C@H](C(=O)O)CC4)n4ncnc(N)c34)[nH]c12
Summary of the method: as §1

Row | Target | log2 fold change (saracatinib) | log2 fold change (sotrastaurin) | log2 fold change (Tubastatin A) | log2 fold change [1] | log2 fold change (defactinib) | log2 fold change [2] | log2 fold change [3] | log2 fold change [4] | log2 fold change (filanesib) | log2 fold change (zotarolimus) | log2 fold change (idasanutlin) | log2 fold change [5] | log2 fold change (gefitinib) | log2 fold change (lapatinib) | log2 fold change (pictilisib) | log2 fold change (rucaparib) | log2 fold change (encorafenib) | log2 fold change (alisertib) | log2 fold change [6]
1 | MTFR1L (UniProt Q9H019) | inactive: 0.052 | inactive: -0.037 | inactive: 0.052 | inactive: -0.024 | inactive: -0.085 | inactive: -0.054 | inactive: -0.14 | inactive: 0.036 | inactive: -0.09 | inactive: 0.037 | inactive: -0.04 | inactive: -0.111 | inactive: 0.083 | inactive: 0.044 | inactive: 0.011 | – | – | – | –
2 | MRPS27 isoform 2 (UniProt Q92552) | inactive: -0.107 | inactive: -0.089 | inactive: 0.06 | inactive: 0.071 | inactive: -0.012 | inactive: 0.108 | inactive: -0.045 | inactive: 0.062 | inactive: 0.029 | inactive: 0.068 | inactive: -0.124 | inactive: -0.024 | inactive: 0.016 | inactive: 0.036 | inactive: -0.038 | inactive: 0.069 | inactive: 0.109 | inactive: -0.05 | inactive: -0.014
3 | MSANTD2 (UniProt Q6P1R3) | inactive: -0.248 | inactive: 0.105 | inactive: 0.032 | – | inactive: -0.113 | inactive: 0.03 | inactive: -0.01 | – | inactive: -0.107 | – | – | – | – | – | – | inactive: -0.32 | inactive: -0.067 | – | –
4 | MYLK (UniProt Q15746) | inactive: 0.177 | inactive: -0.036 | inactive: 0.036 | inactive: 0.716 | inactive: -0.034 | inactive: -0.079 | inactive: -0.216 | inactive: -0.293 | inactive: 0.041 | inactive: 0.01 | – | inactive: 0.043 | inactive: 0.342 | inactive: 0.06 | inactive: 0.098 | inactive: -0.083 | inactive: 0.337 | inactive: -0.095 | inactive: 0.16
5 | MTCH2 (UniProt E9PIE4) | inactive: -0.013 | inactive: 0.042 | – | inactive: -0.018 | inactive: -0.003 | inactive: -0.075 | inactive: -0.011 | inactive: 0.087 | inactive: -0.048 | – | inactive: -0.009 | inactive: -0.046 | inactive: -0.005 | inactive: -0.051 | – | inactive: 0.057 | inactive: -0.038 | inactive: 0.001 | inactive: 0.057
6 | MYL12B (UniProt O14950) | inactive: 0.057 | inactive: -0.012 | inactive: 0.019 | inactive: 0.007 | inactive: -0.036 | inactive: -0.041 | inactive: -0.018 | inactive: -0.008 | inactive: -0.052 | inactive: 0.111 | inactive: -0.064 | inactive: 0.022 | inactive: -0.001 | inactive: 0.047 | inactive: -0.015 | inactive: 0.009 | inactive: -0.012 | inactive: -0.06 | inactive: -0.018
7 | MRPS15 (UniProt P82914) | inactive: -0.134 | inactive: -0.079 | inactive: 0.039 | inactive: -0.07 | inactive: 0.035 | inactive: 0.115 | inactive: -0.01 | inactive: 0.041 | inactive: 0.145 | inactive: 0.095 | inactive: -0.265 | inactive: 0.016 | inactive: -0.054 | inactive: 0.08 | inactive: -0.13 | inactive: 0.084 | inactive: 0.039 | inactive: -0.024 | inactive: 0.024
8 | MRPS5 (UniProt P82675) | inactive: -0.094 | inactive: -0.124 | inactive: -0.009 | inactive: -0.024 | inactive: 0.068 | inactive: 0.161 | inactive: -0.068 | inactive: -0.06 | inactive: 0.078 | inactive: 0.091 | active: -0.37 | inactive: 0.015 | inactive: -0.026 | inactive: 0.054 | inactive: -0.026 | inactive: 0.129 | inactive: 0.072 | inactive: 0.021 | inactive: 0.02
9 | MRPS17 (UniProt Q9Y2R5) | inactive: -0.017 | inactive: -0.138 | inactive: 0.072 | inactive: 0.105 | inactive: 0.096 | inactive: 0.096 | inactive: -0.047 | inactive: -0.089 | inactive: 0.038 | inactive: 0.047 | inactive: -0.254 | inactive: -0.025 | inactive: 0.039 | inactive: 0.113 | inactive: 0.035 | inactive: 0.185 | inactive: 0.016 | inactive: -0.043 | inactive: -0.016
10 | MYH11 isoform 2 (UniProt P35749) | inactive: 0.069 | inactive: -0.024 | inactive: -0.025 | inactive: 0.03 | inactive: -0.039 | inactive: 0.009 | inactive: -0.022 | inactive: 0.027 | inactive: -0.002 | inactive: 0.022 | inactive: -0.045 | inactive: 0.067 | inactive: 0.025 | inactive: 0.018 | inactive: -0.035 | inactive: -0.034 | inactive: 0.001 | inactive: 0.033 | inactive: -0.033
11 | MTERF3 (UniProt Q96E29) | inactive: -0.009 | inactive: -0.172 | inactive: 0.133 | inactive: -0.057 | – | inactive: -0.11 | – | – | inactive: -0.241 | – | – | – | – | – | inactive: 0.032 | – | – | inactive: 0.072 | inactive: 0.424
12 | MSH6 (UniProt P52701) | inactive: -0.142 | inactive: -0.278 | inactive: 0.127 | inactive: -0.049 | inactive: -0.379 | inactive: 0.102 | inactive: -0.098 | inactive: 0.09 | inactive: -0.154 | inactive: 0.088 | inactive: -0.003 | inactive: -0.017 | inactive: 0.068 | inactive: 0.008 | inactive: -0.026 | inactive: -0.014 | inactive: 0.141 | inactive: 0.75 | inactive: -0.04

Looked up above.
log2 fold change (sotrastaurin) with MRPS27 isoform 2 (UniProt Q92552) is entered as inactive: -0.089
log2 fold change (zotarolimus) with MRPS15 (UniProt P82914) is entered as inactive: 0.095
